Data: paper PMC4402518
Construct, isoform or probe ends are uncertain for at least one entry. For some of these results: A negative result means that nothing was seen under these conditions. For some of these results: The comparison behind a weaker result is the experiment's own reference, which may not be listed here.

Tests used:
[1] = tested on: Hop2 dWHD + Mnd1 dWHD + Dmc1; assay: Exonuclease I protection; conditions: Dmc1 nucleofilament, protection similar to wild type; recombinant protein; single-stranded DNA
Hop2-Mnd1 WHD+LZ1 + Dmc1 = assay: Exonuclease I protection; conditions: Dmc1 nucleofilament, far less protective; recombinant protein; protein details: N-terminal His10-MBP; single-stranded DNA
[2] = tested on: Hop2 LZ3wCH + Mnd1 LZ3wCH + Dmc1; assay: Exonuclease I protection; conditions: Dmc1 nucleofilament, protection similar to wild type; recombinant protein; single-stranded DNA
Hop2-Mnd1 dLZ3wCH + Dmc1 = assay: Exonuclease I protection; conditions: Dmc1 nucleofilament, far less protective; recombinant protein; protein details: N-terminal His10-MBP; single-stranded DNA
Hop2 + Mnd1 + Dmc1 = assay: Exonuclease I protection; conditions: Dmc1 nucleofilament; recombinant protein; single-stranded DNA
[3] = tested on: Hop2 LZ2+LZ3wCH + Mnd1 LZ2+LZ3wCH + Dmc1; assay: Exonuclease I protection; conditions: Dmc1 nucleofilament, protection similar to wild type; recombinant protein; single-stranded DNA
Hop2 + Mnd1 = assay: fluorescence anisotropy; conditions: 5 mM Mg2+; Fluorescence anisotropy: 20 mM Tris-HCl pH 7.5, 100 mM NaCl, 5 mM MgCl2, 25 C, 50 nM DNA, triplicate; recombinant protein; label: 5'-fluorescein; single-stranded DNA

| Sequence | binding result [1] | binding result (Hop2-Mnd1 WHD+LZ1 + Dmc1) | binding result [2] | binding result (Hop2-Mnd1 dLZ3wCH + Dmc1) | binding result (Hop2 + Mnd1 + Dmc1) | binding result [3] | binding result (Hop2 + Mnd1) |
| --- | --- | --- | --- | --- | --- | --- | --- |
| CGGCATCAGAGCAGATTGTACTGAGAGTGCACCATATGCGGTGTGAAATACCGCACAGAT [60-mer ssDNA] | binds | binds more weakly | binds | binds more weakly | binds | binds |  |
| GCGGGTAATCCAGATGTTCCACGTGAAACAGAACAACTAA [40-mer ssDNA] |  |  |  |  |  |  | no binding |
